Source: article PMC3484135, “A Divalent Ion Is Crucial in the Structure and Dominant-Negative Function of ID Proteins, a Class of Helix-Loop-Helix Transcription Regulators” (PLoS ONE, 2012)
These are yes or no findings as the source states them, for the method shown. Some results given as binding are weak or reduced against the parent protein; the word gives no strength.

Molecular target: T1, E47 HLH (residues 545–606) (UniProt P15923)
T1 sequence: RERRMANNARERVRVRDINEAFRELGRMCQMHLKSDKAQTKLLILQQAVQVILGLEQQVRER
Assay: native gel or EMSA; ID protein serially diluted and incubated 10 min at room temperature with 0.5 uM E47 in 50 mM Tris, 300 mM NaCl, pH 8.0; Cy5-labelled E-box DNA probe and binding buffer added for 15 min; 6% Tris-glycine native gel at 4°C; bound DNA quantified; both purified

- binding: binds
B1: ID3 HLH (residues 36–86) (domain or fragment, UniProt Q02535 36-86)
chain: EPLSLLDDMNHCYSRLRELVPGVPRGTQLSQVEILQRVIDYILDLQVVLAE
